Measured values from patent EP0927045B1, “TUMOR HOMING MOLECULES, […] THEREFROM, AND METHODS OF USING SAME” (The Burnham Institute, priority 1996, dated 1998).
Part of at least one peptide drawing is inferred or uncertain, most often the ends. Where a SMILES comes first, the peptide text is derived from it. Bridges are numbered along the chain shown (N, C = ends). The star is where a group is joined. Doxorubicin(3'-N) = COc1cccc2c1C(=O)c1c(O)c3c(c(O)c1C2=O)C[C@@](O)(C(=O)CO)C[C@@H]3O[C@H]1C[C@H](N*)[C@H](O)[C@H](C)O1

Test system: MDA-MB-435 breast carcinoma
Assay: Tumor therapy with doxorubicin/peptide conjugates in tumor bearing mice
Assay type: in vivo, Balb c nu/nu mice
Conditions: relative to treatment with the vehicle, alone
Method: Female 2-month old Balb c nu/nu mice (Harlan Sprague Dawley; San Diego CA) were used for these studies and were cared for according to the Burnham Institute animal facility guidelines. […] Tumors were allowed to grow to a size of about 1 cm^3 (about 5% of the mouse's body weight) before starting the treatment experiments, except for the toxicity experiments as discussed below.
Weekly doxorubicin/peptide conjugate or control treatments (5 µg/mouse/week of doxorubicin-equivalent) were administered intravenously. In some experiments, as indicated, a dose of 30 µg/mouse was administered every 3 weeks. Treatment with doxorubicin, alone, is referred to as "dox control" and treatment with doxorubicin conjugated to the non-tumor homing control peptide, […] As an additional control, in some experiments the tumor homing peptide was mixed with doxorubicin, without linking, and the mixture was administered to tumor bearing mice. Such treatment produced results that were not statistically different from those obtained with the above described dox controls.
Mice were anesthetized with a tribromoethanol-based anesthetic mixture (AVERTIN; Papaioannou and Fox, Lab. Anim. 43:189-192 (1993)) before each treatment. […] Tumor volume calculations were based on the equation for the volume of an ovaloid: V=4/3(nabc), where a, b, and c are 1/2 of the measured diameters in each of the three dimensions.

Compound: COc1cccc2c1C(=O)c1c(O)c3c(c(O)c1C2=O)C[C@@](O)(C(=O)CO)C[C@@H]3O[C@H]1C[C@H](NC(=O)[C@@H]2CSSC[C@H](N)C(=O)N[C@@H](CC(N)=O)C(=O)NCC(=O)N[C@@H](CCCNC(=N)N)C(=O)N2)[C@H](O)[C@H](C)O1 [doxorubicin/CNGRC] (H-CNGRC-{Doxorubicin(3'-N)}; disulfide 1-5)
- effect on tumor growth: almost completely suppressed tumor growth
